This passage reports Hill slope results from patent US20130244963A1 (Portola Pharmaceuticals, Inc., priority 2010, published 2013).

The structures appear in SMILES notation. Several values for one entry are separate records, joined by “and”; a condition that tells them apart may be missing. Equal values may be shown once.

For one series, the system named is Daudi. Briefly: Viability of Burkitt's lymphoma cell line by luminescent ATP detection. It is filed as cell-based.
The next series has as its system Ramos. Described as above. It is filed as cell-based.

Consider `COc1cccc2c1C(=O)c1c(O)c3c(c(O)c1C2=O)C[C@@](O)(C(=O)CO)C[C@@H]3O[C@H]1C[C@H](N)[C@H](O)[C@H](C)O1` [Doxorubicin, reference compound], for which the Hill slope in the series with Daudi was 1.26; in the series with Ramos it was 3.7.
On to `NC(=O)c1cnc(N[C@@H]2CCCC[C@@H]2N)nc1Nc1cccc(-n2nccn2)c1` [Compound 1, 4-(3-(2H-1,2,3-triazol-2-yl)phenylamino)-2-((1R,2S)-2-aminocyclohexylamino)pyrimidine-5-carboxamide], for which the Hill slope was 1.42 and 1.44 in the series on Daudi; 1.17 and 1.43 in the series on Ramos.
